Assay results taken from patent publication US20190234942A1.
Results are given in words; binding and its absence hold for the method and conditions named. For some of these results: In cells and extracts the contact can be indirect. Some results given as binding are weak or reduced against the parent protein; the word gives no strength.

Protein sequences, listed by entry. Tags and fused reporters are not part of them. Lines headed by an entry give the natural chain unless they say otherwise; changes in a name come on top.
UniProt Q9Y664: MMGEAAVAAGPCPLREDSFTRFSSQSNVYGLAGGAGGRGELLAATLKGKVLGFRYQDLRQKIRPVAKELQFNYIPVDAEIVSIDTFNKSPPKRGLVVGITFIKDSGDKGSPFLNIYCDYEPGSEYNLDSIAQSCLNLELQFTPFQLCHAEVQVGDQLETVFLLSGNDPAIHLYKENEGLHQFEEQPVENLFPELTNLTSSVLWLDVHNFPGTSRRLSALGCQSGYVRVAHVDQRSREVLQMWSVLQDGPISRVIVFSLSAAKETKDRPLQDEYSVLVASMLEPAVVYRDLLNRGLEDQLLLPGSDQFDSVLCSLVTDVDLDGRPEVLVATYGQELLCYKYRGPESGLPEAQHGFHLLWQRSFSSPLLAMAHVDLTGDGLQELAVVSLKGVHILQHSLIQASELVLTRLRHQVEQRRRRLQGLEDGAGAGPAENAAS
UniProt O75140: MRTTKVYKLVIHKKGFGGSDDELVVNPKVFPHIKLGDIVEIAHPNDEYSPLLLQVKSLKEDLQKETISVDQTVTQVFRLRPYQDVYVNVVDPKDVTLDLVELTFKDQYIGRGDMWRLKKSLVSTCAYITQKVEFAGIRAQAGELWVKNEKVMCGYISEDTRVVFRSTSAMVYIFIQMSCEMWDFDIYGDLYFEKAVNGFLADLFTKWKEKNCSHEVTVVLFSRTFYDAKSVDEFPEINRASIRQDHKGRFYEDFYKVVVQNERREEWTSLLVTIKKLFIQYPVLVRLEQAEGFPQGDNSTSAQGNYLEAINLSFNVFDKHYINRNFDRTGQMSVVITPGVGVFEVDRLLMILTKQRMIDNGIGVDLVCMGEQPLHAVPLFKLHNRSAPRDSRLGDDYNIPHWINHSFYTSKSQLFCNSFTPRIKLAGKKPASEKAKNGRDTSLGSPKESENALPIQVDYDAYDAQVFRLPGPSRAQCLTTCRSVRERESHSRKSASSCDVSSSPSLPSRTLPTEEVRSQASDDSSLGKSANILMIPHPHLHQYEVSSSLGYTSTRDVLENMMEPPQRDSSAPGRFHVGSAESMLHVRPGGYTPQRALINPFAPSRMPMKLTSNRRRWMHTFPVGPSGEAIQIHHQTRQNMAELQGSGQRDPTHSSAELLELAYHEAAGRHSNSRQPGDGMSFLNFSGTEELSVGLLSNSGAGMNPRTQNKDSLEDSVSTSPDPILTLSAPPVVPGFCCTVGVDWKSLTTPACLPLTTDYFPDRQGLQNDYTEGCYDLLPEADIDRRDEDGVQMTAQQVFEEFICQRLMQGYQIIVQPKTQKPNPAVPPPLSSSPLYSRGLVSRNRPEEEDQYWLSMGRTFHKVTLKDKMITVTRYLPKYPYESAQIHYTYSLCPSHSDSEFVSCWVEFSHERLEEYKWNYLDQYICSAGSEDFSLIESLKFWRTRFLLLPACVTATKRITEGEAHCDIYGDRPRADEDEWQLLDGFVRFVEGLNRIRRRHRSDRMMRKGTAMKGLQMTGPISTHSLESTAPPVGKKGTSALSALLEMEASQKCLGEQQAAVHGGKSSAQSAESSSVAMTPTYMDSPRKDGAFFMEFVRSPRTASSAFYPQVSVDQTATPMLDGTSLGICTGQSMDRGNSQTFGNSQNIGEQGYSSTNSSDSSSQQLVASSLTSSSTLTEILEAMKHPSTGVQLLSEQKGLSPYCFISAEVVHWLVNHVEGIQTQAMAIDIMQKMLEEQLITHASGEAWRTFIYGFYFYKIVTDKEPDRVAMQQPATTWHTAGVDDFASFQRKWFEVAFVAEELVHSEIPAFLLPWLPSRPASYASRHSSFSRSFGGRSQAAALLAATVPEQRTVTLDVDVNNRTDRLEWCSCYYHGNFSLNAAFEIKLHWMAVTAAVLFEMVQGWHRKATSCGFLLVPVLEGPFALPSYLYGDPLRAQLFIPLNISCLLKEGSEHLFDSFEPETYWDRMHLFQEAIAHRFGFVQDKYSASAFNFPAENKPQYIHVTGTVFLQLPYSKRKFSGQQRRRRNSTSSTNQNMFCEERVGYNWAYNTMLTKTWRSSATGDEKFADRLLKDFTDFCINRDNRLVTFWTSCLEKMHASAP

Legend:
[1] = biological target: KICSTOR complex (Kaptin, ITFG2, C12orf66, SZT2) (UniProt Q9Y664); test: reciprocal co-immunoprecipitation: anti-FLAG IP of transfected FLAG-Depdc5 blotted for SZT2, and of FLAG-Kaptin blotted for Nprl3, wild-type HEK-293T
[2] = biological target: KICSTOR complex (Kaptin, ITFG2, C12orf66, SZT2) (UniProt Q9Y664); test: reciprocal co-immunoprecipitation: anti-FLAG IP of endogenous FLAG-Depdc5 blotted for SZT2, and of FLAG-Kaptin blotted for Nprl3, HEK-293T
[3] = biological target: KICSTOR complex (Kaptin, ITFG2, C12orf66, SZT2) (UniProt Q9Y664); test: anti-FLAG IP of endogenous FLAG-Depdc5 from HEK-293T, compounds added to the immunoprecipitate, immunoblot for SZT2
[4] = biological target: KICSTOR complex (Kaptin, ITFG2, C12orf66, SZT2) (UniProt Q9Y664); test: anti-FLAG IP of endogenous FLAG-Depdc5 from HEK-293T, SAM or SAH added to the immunoprecipitate, immunoblot for SZT2

Measured: binding

GATOR1 complex (Depdc5, Npr13, Npr12) (from UniProt O75140 1-1603; Q12980 1-569; Q8WTW4 1-380)
binds: all assays above
